From patent publication US20080260716A1, “Method and Composition for High Level Disinfection Employing Quaternary Ammonium Compounds” (priority 2004, published 2008) come the findings set out here.

For one experiment, the system named is Mycobacterium terrae. The experiment is described as follows: AOAC tuberculocidal test, kill time. It is filed as cell-based. To be noted: test 1.3; 0.25% benzethonium chloride, 0.25% Triton X-100, 5% isopropanol; 62° C. + ultrasound 20 min/hr. The source says:
Standards have been established for “sterilization”, and for “low”, “intermediate” and “high” level disinfection. These standards are based on the known or possible risk of contamination of a particular medical device by a particular micro-organism, the pathogenic nature of the organism and other principles in infection control. […] The test panels and criteria are different for “low”, “intermediate” or “high-level disinfection”. These terms are herein used in accordance with current Food and Drug Administration (“FDA”) criteria for levels of disinfection which are detailed in Premarket Notification [510(k)] Submissions for Liquid Chemical Sterilants and High Level Disinfectants FDA 1997: “A germicide that inactivates all microbial pathogens except large number of bacterial endospores when used according to labelling”. In brief, the FDA regulatory requirement for high level disinfectants includes as the most challenging test a 100% kill of Mycobacterium tuberculosis var. bovis (or a specific strain of a suitable surrogate, such as Mycobacterium terrae) in 400 p.p.m. hard water in the presence of 2% horse serum in a quantitative tuberculocidal test.
In the following tables unless otherwise specified references to “kill time” mean the time required to achieve complete kill as defined in the relevant AOAC test (more particularly identified in annexure 1). […]

In the next experiment the test system is B. subtilis spores. The experiment is described as follows: AOAC sporicidal test, kill time. It is filed as cell-based. To be noted: test 1.3; 0.25% benzethonium chloride, 0.25% Triton X-100, 5% isopropanol; 62° C. + ultrasound 20 min/hr.

Regarding `CC(C)(C)CC(C)(C)c1ccc(OCCOCC[N+](C)(C)Cc2ccccc2)cc1` [benzethonium chloride, reference compound], in the experiment on Mycobacterium terrae, the “Kill Time Mycobacterium terrae” value was above 60 min. The “Kill time B. subtilis” value in the experiment on B. subtilis spores was above 24 h.
